The values that follow come from article PMC5663958, “DNA Ligase C and Prim-PolC participate in base excision repair in mycobacteria” (Nature Communications, 2017).

Chains of the proteins cited; added tags and fusions are not shown. Lines headed by an entry give the natural chain unless they say otherwise; changes in a name come on top.
UniProt A0R5T1: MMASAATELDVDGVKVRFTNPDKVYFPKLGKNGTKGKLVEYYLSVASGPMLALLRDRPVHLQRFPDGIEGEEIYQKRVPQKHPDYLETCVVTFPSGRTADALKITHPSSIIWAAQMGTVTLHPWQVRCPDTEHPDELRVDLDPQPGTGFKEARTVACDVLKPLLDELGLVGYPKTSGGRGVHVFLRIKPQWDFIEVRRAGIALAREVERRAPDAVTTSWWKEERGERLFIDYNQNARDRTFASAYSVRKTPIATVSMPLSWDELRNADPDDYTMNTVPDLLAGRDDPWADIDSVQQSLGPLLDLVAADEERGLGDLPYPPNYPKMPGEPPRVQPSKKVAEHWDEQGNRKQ

For test [1], the target named is T1, exodeoxyribonuclease VIIB (ExoVIIB), recombinant (M. smegmatis) (UniProt A0R2T5).
T1 sequence: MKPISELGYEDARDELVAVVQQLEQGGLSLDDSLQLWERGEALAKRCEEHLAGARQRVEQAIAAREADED
In words: far-Western, overlay or dot blot; recombinant proteins slot-blotted on a membrane (3 μg of the possible interactors, 50 ng of the probed protein), blocked in TBS, 0.05% Tween 20, 5% milk; incubated with 5 μg ml^−1 Prim-PolC or LigC1; detected with Prim-PolC- or LigC1-specific antibodies; both purified.

The target of test [2] is T2, DNA ligase C1 (LigC1, msmeg_6302), recombinant, His-tagged construct (M. smegmatis) (UniProt A0R5T2).
T2 sequence: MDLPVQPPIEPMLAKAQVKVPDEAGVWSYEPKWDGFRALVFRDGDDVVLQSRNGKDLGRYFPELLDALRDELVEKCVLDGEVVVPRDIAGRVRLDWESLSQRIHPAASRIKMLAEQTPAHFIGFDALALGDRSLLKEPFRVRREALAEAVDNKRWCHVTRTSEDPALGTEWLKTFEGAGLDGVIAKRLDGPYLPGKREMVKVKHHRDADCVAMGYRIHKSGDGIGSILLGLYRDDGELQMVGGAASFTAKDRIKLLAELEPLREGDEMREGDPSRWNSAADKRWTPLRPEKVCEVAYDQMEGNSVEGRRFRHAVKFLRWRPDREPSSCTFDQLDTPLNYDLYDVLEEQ
The description is as above.

Test [3] concerns the target exonuclease III paralogue ExoIII, recombinant (M. smegmatis). The description is as above.
For test [4], the target named is exonuclease III paralogue XthA, recombinant (M. smegmatis). The description is as above.
The target of test [5] is endonuclease IV (EndoIV), recombinant (M. smegmatis). The test is described as above.
Test [6] has as its target Prim-PolC (MSMEG_6301), recombinant (M. smegmatis) (UniProt A0R5T1). The test is described as above.
The target in test [7] is Mono-functional DNA glycosylase (MPG), recombinant (M. smegmatis). The test is described as above.
For test [8] the target is unchanged. In words: pull-down; FPG-6xHis or 6xHis-MPG bound to Ni-NTA resin in 50 mM Tris pH 8.0, 150 mM NaCl, 1 h at 4 °C; tag-free LigC or BSA added for 2 h; equimolar proteins; eluted with imidazole; SDS-PAGE and Coomassie staining; both purified.

Results are given in words; binding and its absence hold for the method and conditions named. For some assays here: A result given as binding can be weak or reduced; the word gives no strength. For some assays here: Sequences can lack the tags named with a protein.

Turning to “Prim-PolC (MSMEG_6301), recombinant (from UniProt A0R5T1) (enzyme)”, the binding result in test [1] is given as “no binding (tested: 5 μg ml^−1 probe on 3 μg blotted protein)”; in test [2], “binds”.

B1: DNA ligase C1 (LigC1, msmeg_6302), recombinant, His-tagged construct (enzyme, UniProt A0R5T2 1-348)
chain: T2 sequence
On to B1, for which the binding result in test [3], in test [4], in test [5], in test [6] and in test [7] was “binds” each time.

B2: tag-free LigC1 (6xHis-LigC subjected to thrombin digestion) (enzyme, UniProt A0R5T2 1-348)
chain: T2 sequence
Regarding B2, the binding entry in test [8] is recorded as “binds”.
